This passage reports binding results from PMC3675011.

The chains behind the UniProt entries cited, without tags or fusion partners.
UniProt P91918: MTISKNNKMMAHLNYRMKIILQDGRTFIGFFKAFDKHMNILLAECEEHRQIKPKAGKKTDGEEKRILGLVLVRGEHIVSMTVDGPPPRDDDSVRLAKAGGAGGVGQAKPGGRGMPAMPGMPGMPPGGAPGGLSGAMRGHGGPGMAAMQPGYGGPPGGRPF

For experiment [1], the target named is T1, RSR-2, the Caenorhabditis elegans ortholog of human SRm300/SRRM2 (C. elegans (endogenous in N2 worms)) (UniProt Q9U213).
T1 sequence: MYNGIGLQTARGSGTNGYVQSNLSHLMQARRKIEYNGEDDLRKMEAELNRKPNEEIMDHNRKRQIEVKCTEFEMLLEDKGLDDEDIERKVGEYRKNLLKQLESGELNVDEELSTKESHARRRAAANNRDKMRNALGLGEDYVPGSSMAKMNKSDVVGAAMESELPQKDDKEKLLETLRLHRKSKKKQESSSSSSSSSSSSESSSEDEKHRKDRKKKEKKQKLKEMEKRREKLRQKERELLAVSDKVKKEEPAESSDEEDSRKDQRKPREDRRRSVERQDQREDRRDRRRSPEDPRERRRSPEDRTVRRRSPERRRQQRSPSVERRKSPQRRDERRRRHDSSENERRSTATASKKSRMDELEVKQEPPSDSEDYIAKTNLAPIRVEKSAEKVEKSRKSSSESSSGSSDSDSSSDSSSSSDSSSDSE
As to the kind of experiment: affinity purification with mass spectrometry; RSR-2-containing complexes immunopurified with anti-RSR-2 antibody from two biological replicates of wild type mixed-stage worms; eluate precipitated with acetone, digested with trypsin (MudPIT), LC-MS/MS; control unspecific rabbit IgG.

Experiment [2] deals with T1, RSR-2, the Caenorhabditis elegans ortholog of human SRm300/SRRM2 (C. elegans (endogenous in N2 worms)). As to the kind of experiment: affinity purification with mass spectrometry; anti-RSR-2 immunoprecipitate and control rabbit IgG immunoprecipitate from mixed-stage worms run on two-dimensional gels, silver-stained; one differential spot excised, in-gel digestion, LC-MS/MS.

For experiment [3] the target is unchanged. In words: affinity purification with mass spectrometry; RSR-2-containing complexes immunopurified with anti-RSR-2 antibody from two biological replicates of wild type mixed-stage worms; eluate precipitated with acetone, digested with trypsin (MudPIT), LC-MS/MS; control unspecific rabbit IgG. This is another data set of the same source.

These are yes or no findings as the source states them, for the method shown. In cells and extracts the contact can be indirect. A yes stands for co-enrichment or nearness to the bait. Other partners may have been found.

“Probable small nuclear ribonucleoprotein-associated protein B (snr-2) (from UniProt P91918 1-160)”: the binding result in experiment [1] is on record as “binds”.

B1: Pre-mRNA-processing factor 19 homolog (prp-19) (protein, UniProt Q10051 1-492)
chain: MSFVCGISGELTEDPVVSQVSGHIFDRRLIVKFIAENGTDPISHGELSEDQLVSLKSGGTGSAPRNVSGTSIPSLLKMLQDEWDTVMLNSFSLRQQLQIARQELSHSLYQHDAACRVISRLSKELTAAREALSTLKPHTSAKVDDDVSIDESEDQQGLSEAILAKLEEKSKSLTAERKQRGKNLPEGLAKTEELAELKQTASHTGIHSTGTPGITALDIKGNLSLTGGIDKTVVLYDYEKEQVMQTFKGHNKKINAVVLHPDNITAISASADSHIRVWSATDSSSKAIIDVHQAPVTDISLNASGDYILSASDDSYWAFSDIRSGKSLCKVSVEPGSQIAVHSIEFHPDGLIFGTGAADAVVKIWDLKNQTVAAAFPGHTAAVRSIAFSENGYYLATGSEDGEVKLWDLRKLKNLKTFANEEKQPINSLSFDMTGTFLGIGGQKVQVLHVKSWSEVVSLSDHSGPVTGVRFGENARSLVTCSLDKSLRVFSF
For the molecule B1, the binding entry in experiment [2] and in experiment [3] was “binds” throughout.
